Measured values: publication PMC4532469
Like-named read-outs stand apart in the source and are kept apart here. Results are given in words; binding and its absence hold for the method and conditions named.

Chains of the proteins cited; added tags and fusions are not shown. Residues count along the entry.
UniProt Q14767, residues 36-1821: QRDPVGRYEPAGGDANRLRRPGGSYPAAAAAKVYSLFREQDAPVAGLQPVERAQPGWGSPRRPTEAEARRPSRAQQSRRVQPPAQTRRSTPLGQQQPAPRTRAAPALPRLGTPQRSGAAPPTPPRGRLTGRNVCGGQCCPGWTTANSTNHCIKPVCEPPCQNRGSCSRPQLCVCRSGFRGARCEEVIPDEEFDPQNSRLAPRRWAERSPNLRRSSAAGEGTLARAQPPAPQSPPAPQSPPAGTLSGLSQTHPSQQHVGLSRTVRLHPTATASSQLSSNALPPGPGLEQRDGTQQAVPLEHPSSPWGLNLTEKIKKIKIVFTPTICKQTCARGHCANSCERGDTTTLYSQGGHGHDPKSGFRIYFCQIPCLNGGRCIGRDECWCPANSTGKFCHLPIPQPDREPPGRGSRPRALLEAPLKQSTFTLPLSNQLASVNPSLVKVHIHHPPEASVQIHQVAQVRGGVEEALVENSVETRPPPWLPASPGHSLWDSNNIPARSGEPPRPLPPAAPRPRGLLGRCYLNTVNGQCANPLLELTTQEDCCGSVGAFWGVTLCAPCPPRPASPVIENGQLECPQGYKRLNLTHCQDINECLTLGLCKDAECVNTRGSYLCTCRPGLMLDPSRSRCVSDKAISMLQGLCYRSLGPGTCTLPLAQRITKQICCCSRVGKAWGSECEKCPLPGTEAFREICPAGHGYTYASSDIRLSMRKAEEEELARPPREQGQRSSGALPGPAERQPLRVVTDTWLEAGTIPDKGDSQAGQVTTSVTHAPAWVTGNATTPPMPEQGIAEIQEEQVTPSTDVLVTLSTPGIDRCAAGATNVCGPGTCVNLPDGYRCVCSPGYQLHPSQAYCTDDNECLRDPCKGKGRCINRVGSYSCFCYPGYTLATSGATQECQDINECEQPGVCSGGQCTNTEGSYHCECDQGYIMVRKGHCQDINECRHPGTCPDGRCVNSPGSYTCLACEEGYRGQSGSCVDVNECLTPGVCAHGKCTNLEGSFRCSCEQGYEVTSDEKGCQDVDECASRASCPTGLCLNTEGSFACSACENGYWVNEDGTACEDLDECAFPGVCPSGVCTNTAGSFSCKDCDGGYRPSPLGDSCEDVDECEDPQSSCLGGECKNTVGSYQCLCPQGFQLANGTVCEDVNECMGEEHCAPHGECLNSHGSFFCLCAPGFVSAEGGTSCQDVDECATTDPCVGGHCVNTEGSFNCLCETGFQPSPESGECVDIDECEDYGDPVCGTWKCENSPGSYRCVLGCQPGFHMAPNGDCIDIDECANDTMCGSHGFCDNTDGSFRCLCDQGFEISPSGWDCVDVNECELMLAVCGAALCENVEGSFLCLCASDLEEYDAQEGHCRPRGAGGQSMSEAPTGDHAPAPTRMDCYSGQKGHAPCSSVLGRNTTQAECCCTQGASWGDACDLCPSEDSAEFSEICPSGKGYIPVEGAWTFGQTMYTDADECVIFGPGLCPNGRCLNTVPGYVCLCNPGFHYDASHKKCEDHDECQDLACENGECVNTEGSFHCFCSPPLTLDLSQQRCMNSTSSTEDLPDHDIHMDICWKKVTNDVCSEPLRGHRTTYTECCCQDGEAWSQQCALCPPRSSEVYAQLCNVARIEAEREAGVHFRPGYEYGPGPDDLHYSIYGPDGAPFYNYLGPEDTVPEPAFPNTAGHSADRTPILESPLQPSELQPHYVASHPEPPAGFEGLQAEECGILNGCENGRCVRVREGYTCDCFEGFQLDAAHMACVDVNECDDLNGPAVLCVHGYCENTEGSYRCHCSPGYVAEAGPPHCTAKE
UniProt P18075, residues 293-431: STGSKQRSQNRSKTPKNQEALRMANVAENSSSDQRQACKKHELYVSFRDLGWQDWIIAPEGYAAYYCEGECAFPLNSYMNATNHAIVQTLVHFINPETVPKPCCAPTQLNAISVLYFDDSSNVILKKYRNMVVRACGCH

How the values were obtained:
[1] = molecular target: full-length recombinant human LTBP-2 (latent transforming growth factor-beta-1 binding protein-2) (human) (UniProt Q14767); assay: ELISA; solid phase binding assay: rLTBP-2 (100 ng/well) coated on microtitre wells, BSA-coated wells as control; growth factor at one amount per well, 37°C, 2 h; bound growth factor detected with biotinylated DuoSet antibody and streptavidin-HRP (Fig 2); both purified
[2] = molecular target: full-length recombinant human LTBP-2 (latent transforming growth factor-beta-1 binding protein-2) (human) (UniProt Q14767); assay: as above; remark: listed apart in the source

Molecule	binding [1]	binding [2]
recombinant human BMP-7 (from UniProt P18075 293-431) (ligand)	no binding (tested: 4 ng/well)	–
recombinant human BMP-4 (ligand, UniProt P12644 293-408) SPKHHSQRARKKNKNCRRHSLYVDFSDVGWNDWIVAPPGYQAFYCHGDCPFPLADHLNSTNHAIVQTLVNSVNSSIPKACCVPTELSAISMLYLDEYDKVVLKNYQEMVVEGCGCR	–	no binding (tested: 4 ng / well)
